This passage reports binding results from PMC11421798, “Subfunctionalization of NRC3 altered the genetic structure of the Nicotiana NRC network” (PLOS Genetics, 2024).

These are yes or no findings as the source states them, for the method shown. Some binding calls cover weakened binding; strength is not graded here.

This assay concerns the target N^L21… (… with L21E) (N. benthamiana). In words: native gel or EMSA; BN-PAGE (NativePAGE 4-16% Bis-Tris) of 1% digitonin extracts of nrc2/3/4_KO N. benthamiana leaves at 2 dpi; NRC3 variant co-expressed with Rpi-blb2 and AVRblb2. Background: In EMSA bound probe runs differently from free probe, usually more slowly.

B1: N^L21… (… with L21E) (natural protein, N. benthamiana, UniProt A0A5J6DCA3 1-888, looked up)
chain: MADVAADVAVKFLVENLMQLEIDNADLIIGIKGEVENLLQDLNDFNAFLKQAAKSRRDNEVLKSLVKKIRKVVNDAEDSIDKFVIEAKRHDDKNKFAQWFHLTHVARAKGVADEIKTIRERVKEIRQNDAYGLQAITSYDNFNQGAQERKVPVVEEDDVVGFDDEAKTVIDRLIGGSDYVVPVVGMPGLGKTTLAYKIFKDPKVEYEFFNRIWVYVSQSFKRREIFLNIISKFTRNTKQYHDTPEEELANEIKELLGKGGKYLVVLDDVWTREAWDRIKIAFPNNNKRNRVLMTTRQNNVAKSCNDKPHDLKFLTENESWELLEKRVFHKEKCPFELELPGKSIAKKCRGLPLAIVVIAGALIGKGKTTREWELVADSVGEHLINRDPENCKKLVQMSYDRLPYDLKACFLYCGAFPGGSEISAQKLICLWIAEGFIQYQGPLTLEDIAEDHLNDLVNRNLVMVMKRSSSGQIKTCRVHDMLHEFCRHEAMMEENLFQEIKRGQEHSFPEKQELASYRRLCIHSSVSEFLSTKPFAEHVRSFLCFASKKFEMPLGEIPAIPRAFPLLRVLDAESIKFSRFSREFFKLFHLRYIAFSTDSIMTIPTNIGNLWNVQTLIIETQQGTLDIKADIWNMTRLRHVCTNASATLPSPKRPKSSKDNLVNRCLQTLSTIAPECCTAEVFTRTPNLKKLGVRGKIDALLETSKDGSSSGLFSNIGKLDCLEKLKLVNDTRQSRKQLHLPPAYIFPQKLKKLTLIDTWFEWKDMSILGLLEYLEVLKLKENAFRGQSWEPEDSGFPRLQVLWIERTDLSSWKASSGNFPRLKHLVLIACDKLKELPAELADVENLQLMELQSTSVSAAKSARAILKKKQQKVGSGFKLSVFPPDLGL
notes: L21E is named only in the methods of the BN-PAGE; source: nrc2/3/4_KO N. benthamiana leaves, agroinfiltrated, in digitonin extract
In the case of B1, the binding entry is on record as “binds”.
